From PubChem BioAssay record AID1920064 (Tox21, 2024).

By UniProt entry, the sequences of proteins in these tests, tags left out.
UniProt Q969F8, whole entry, target on record: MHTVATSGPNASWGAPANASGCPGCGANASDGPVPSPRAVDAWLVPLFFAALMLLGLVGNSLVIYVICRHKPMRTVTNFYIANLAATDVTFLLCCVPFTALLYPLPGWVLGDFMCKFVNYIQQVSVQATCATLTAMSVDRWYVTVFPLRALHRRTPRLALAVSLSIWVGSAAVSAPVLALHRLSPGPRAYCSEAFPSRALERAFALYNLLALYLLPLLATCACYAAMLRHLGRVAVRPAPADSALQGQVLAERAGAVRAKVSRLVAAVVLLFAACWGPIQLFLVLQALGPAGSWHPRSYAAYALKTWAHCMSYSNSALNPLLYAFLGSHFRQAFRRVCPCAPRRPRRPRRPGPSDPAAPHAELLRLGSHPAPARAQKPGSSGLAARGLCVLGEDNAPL

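An agonist-mode calcium signal screen in KISS1R-expressing HEK293 cells using a fluorescent readout, with no exposure time reported.
Each compound was run as a concentration series reaching mostly 76.8 µM.
The value is the fitted potency (AC50); a lower number means a more potent activator.
Calls come from the fitted dose curve, and inconclusive marks weak, partial, poorly fitted or mixed activation curves.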

Values are in µM.
Every entry below has the call inconclusive.
These entries are mostly ones the record files as inconclusive; other results of the assay are not listed here.
Potencies fitted to partial, single-point or poorly fitting curves are rough.

structure | potency (µM) | curve as filed
CCN(CC)CCCN(c1ccccc1)C1Cc2ccccc2C1 | 26.83 | activator, partial curve, poor fit
CC(C)(C)c1ccc(O)c(C(C)(C)C)c1 | 61.4 | activator, partial curve, poor fit
C=COCCOCCOC=C | 61.64 | activator, partial curve, poor fit
CCCOc1sc(C(=O)N2CCC(c3cc(CN)ccc3F)CC2)c(C)c1Br | 50.36 | activator
CC(C)(C)c1cc(O)c(C(C)(C)C)cc1O | 21.87 | activator, full curve, poor fit
CCCCN(CCCC)c1ccc(C(=O)c2ccccc2C(=O)O)c(O)c1 | 49.45 | activator
Nc1ccccc1N | 54.94 | activator
O=C(N/N=C/c1ccccc1O)c1ccncc1 | 0.0756 | activator, partial curve
O=C(c1ccc(OCCN2CCCCC2)cc1)c1c(-c2ccc(O)cc2)sc2cc(O)ccc12 | 21.9 | activator, partial curve, poor fit
CCCCCCCCCCCCCCCC[N+](C)(C)CC | 23.91 | activator, partial curve, poor fit
Cc1cc2nc3c(=O)[nH]c(=O)nc-3n(C[C@H](O)[C@H](O)[C@H](O)CO)c2cc1C | 11.68 | activator
CC(C)CCCC(C)CC=O (configuration not stated) | 54.94 | activator, single point
CC(=O)CCC(C)C | 61.64 | activator, partial curve, poor fit
CCCCC(CC)CNC(=O)CC(C)OC(=O)CCC(=O)O (configuration not stated) | 30.11 | activator, partial curve, poor fit
Nc1ccc(N)c(Cl)c1 | 54.95 | activator

For reference, 2 entries once more:

structure,potency (µM),curve as filed
O=C(c1ccc(OCCN2CCCCC2)cc1)c1c(-c2ccc(O)cc2)sc2cc(O)ccc12,21.9,"activator, partial curve, poor fit"
CCCCCCCCCCCCCCCC[N+](C)(C)CC,23.91,"activator, partial curve, poor fit"